{"source": "paper PMC8773839", "binders": {"B1": {"name": "2Flag-MRAP1 (melanocortin receptor accessory protein 1, mouse) (protein, UniProt Q9D159 1-127)", "chain": "MANGTDASVPLTSYEYYLDYIDLIPVDEKKLKANKHSIVIALWLSLATFVVLLFLILLYMSWSGSPQMRHSPQPQPICSWTHSFNLPLCLRRASLQTTEEPGRRAGTDQWLTQQSPSASAPGPLALP"}}, "test_in_all_cases": "co-IP; HEK293T co-transfected with 3HA-SSTR (or an SSTR chimera) and 2Flag-MRAP1 or 2Flag-MRAP2; lysate immunoprecipitated with anti-HA overnight at 4 °C, protein A/G beads; blots with anti-HA and anti-Flag", "key": {"[1]": {"target": "S3(E3 + T5): SSTR2/SSTR3 chimera with ECL3 + TM5 of SSTR3 (mouse)"}, "[2]": {"target": "S3(E4 + T7): SSTR2/SSTR3 chimera with ECL4 + TM7 of SSTR3 (mouse)"}, "[3]": {"target": "S3(I3 + T6): SSTR2/SSTR3 chimera with ICL3 + TM6 of SSTR3 (mouse)"}, "[4]": {"target": "SSTR2 with ECL1-TM3 replaced by the corresponding region of SSTR3 (mouse)"}, "[5]": {"target": "SSTR2 with ECL1-TM3 replaced by the corresponding region of SSTR5 (mouse)"}, "[6]": {"target": "SSTR2 with ICL2-ICL4 replaced by the corresponding region of SSTR3 (mouse)"}, "[7]": {"target": "SSTR2 with ICL2-ICL4 replaced by the corresponding region of SSTR5 (mouse)"}, "[8]": {"target": "SSTR2/SSTR3 chimera E1 + T1 (ECL1 + TM1 of SSTR3) (mouse)"}, "[9]": {"target": "SSTR2/SSTR3 chimera E2 + T3 (ECL2 + TM3 of SSTR3) (mouse)"}, "[10]": {"target": "SSTR2/SSTR3 chimera I1 + T2 (ICL1 + TM2 of SSTR3) (mouse)"}, "[11]": {"target": "SSTR2/SSTR3 chimera I2 + T4 (ICL2 + TM4 of SSTR3) (mouse)"}, "[12]": {"target": "SSTR2/SSTR5 chimera E3 + T5 (ECL3 + TM5 of SSTR5) (mouse)"}, "[13]": {"target": "SSTR2/SSTR5 chimera E4 + T7 (ECL4 + TM7 of SSTR5) (mouse)"}, "[14]": {"target": "SSTR2/SSTR5 chimera I2 + T4 (ICL2 + TM4 of SSTR5) (mouse)"}, "[15]": {"target": "SSTR2/SSTR5 chimera I3 + T6 (ICL3 + TM6 of SSTR5) (mouse)"}}, "note": "Results are given in words; binding and its absence hold for the method and conditions named. Binding seen in cells or lysates may run through a third protein. For part of these data: Binding calls can cover weak binding; strength is not graded here. Tags and fused reporters may be left off the sequences shown.", "data": [{"binder": "B1", "values": [{"measurement": "binding", "setting": "[1]", "result": "binds"}, {"measurement": "binding", "setting": "[2]", "result": "binds"}, {"measurement": "binding", "setting": "[3]", "result": "binds"}, {"measurement": "binding", "setting": "[4]", "result": "binds"}, {"measurement": "binding", "setting": "[5]", "result": "no binding"}, {"measurement": "binding", "setting": "[6]", "result": "binds"}, {"measurement": "binding", "setting": "[7]", "result": "binds"}, {"measurement": "binding", "setting": "[8]", "result": "binds weakly"}, {"measurement": "binding", "setting": "[9]", "result": "binds weakly"}, {"measurement": "binding", "setting": "[10]", "result": "binds"}, {"measurement": "binding", "setting": "[11]", "result": "no binding"}, {"measurement": "binding", "setting": "[12]", "result": "no binding"}, {"measurement": "binding", "setting": "[13]", "result": "binds"}, {"measurement": "binding", "setting": "[14]", "result": "no binding"}, {"measurement": "binding", "setting": "[15]", "result": "binds"}]}]}
